Reference: PubChem BioAssay AID493014 (National Center for Advancing Translational Sciences (NCATS), 2011)
Some of the results follow. Further columns of the screen follow, without active or inactive calls. Compounds called inactive in the main read-out are mostly missing here. Words in brackets tell the shape of the fitted curve; partial curves, single points and poor fits give uncertain potencies.

Assay: qHTS Assay to Find Inhibitors of Chronic Active B-Cell Receptor Signaling
Conditions: ABC-DLBCL IkBa-CBG/CBR reporter, luminescence ratio (green luciferase fused to IkBa over red control in TMD8 lymphoma cells), 4 h
Outline: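 Concentration-response series (up to 46 uM) were applied to TMD8 dual-reporter cells for 4 h at 37C with doxycycline. Green/red ratio, after filter-overlap correction, defined %Activity; red signal alone was normalised to basal cells and zero luminescence.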

[1] = measured here: CBR red luminescence, cell number
[2] = measured here: IkBa-CBG green luminescence

Row | Structure (SMILES) | AC50 [1] | AC50 [2]
1 | CCOC(=O)C1CCCN(c2c(N3CCc4ccccc4C3)c(=O)c2=O)C1 (configuration not stated) | 9.2 µM [rising, single point] | 
2 | CCN(CC)C(=O)c1sc(NC(=O)c2ccc3c(c2)OCO3)c(C#N)c1C | 0.092 µM [falling, full curve, poor fit] | 
3 | Cc1ccc2nc(NNC(=O)c3ccc(S(=O)(=O)N4CCc5ccccc5C4)cc3)sc2c1 | 29.1 µM [rising, single point] | 
4 | COc1ccccc1NC1=C(N2CCCCC2)C(=O)c2ccccc2C1=O | 25.9 µM [falling, partial curve, poor fit] | 
5 | CCOC(=O)C1=C(COC(=O)c2ccc3ccccc3c2O)NC(=O)NC1C (configuration not stated) | 29.1 µM [falling, single point] | 
6 | CS(=O)(=O)N1CCN(c2ccccc2NC(=O)Cc2ccc(Cl)cc2)CC1 | 3.26 µM [falling, single point] | 
7 | C/C(=N\OC(=O)c1c(-c2c(F)cccc2Cl)noc1C)c1nccs1 | 6.31 µM [rising, single point] | 
8 | COc1ccc(C)cc1N(C(=O)c1cccc(F)c1)c1nc2ccccc2s1 | 14.6 µM [falling, single point] | 
9 | N#Cc1ccccc1NC(=O)COc1ccccc1C(=O)Nc1ccccc1 | 1.64 µM [rising, partial curve, poor fit] | 
10 | CCCCN(C(=O)CSc1nc2ccccc2s1)c1c(N)n(CCCC)c(=O)[nH]c1=O | 13 µM [rising, partial curve, poor fit] | 
11 | CCn1c(SCC(=O)Nc2nccs2)nnc1-c1ccccc1 | 2.06 µM [falling, single point] | 
12 | O=C(N1CCOCC1)N1CCN(S(=O)(=O)N2CCCCC2)CC1 | 29.1 µM [falling, single point] | 
13 | O=C1c2cc(N3CCCC3)c([N+](=O)[O-])cc2C(=O)N1c1ccccc1 | 29.1 µM [rising, partial curve, poor fit] | 
14 | COc1ccc(C(CC(=O)NCc2ccco2)c2ccc(F)cc2)cc1 (configuration not stated) | 35.5 µM [falling, single point] | 
15 | COc1ccc(/C=N/Nc2ncnc3sc4c(c23)CCCC4)cc1O | 13 µM [falling, partial curve, poor fit] | 
16 | COc1ccc2c(c1OC)C(=O)N(c1ccccc1)C2=O | 5.62 µM [rising, single point] | 
17 | O=C(CSc1nc2ccccc2c(=O)n1-c1ccc(Cl)cc1)N/N=C/C=C/c1ccccc1[N+](=O)[O-] | 2.59 µM [falling, full curve] | 
18 | COc1ccc(N2CS(=O)CC2=O)cc1 (configuration not stated) | 35.5 µM [rising, single point] | 
19 | O=C(Cn1cnc2ccccc2c1=O)Nc1cccc(-c2nnc3n2CCCCC3)c1 | 32.6 µM [falling, single point] | 
20 | O=C(NCc1ccco1)C(c1cccs1)N(C(=O)C1COc2ccccc2O1)c1cccc(O)c1 (configuration not stated) | 29.1 µM [falling, single point] | 
21 | CC(C)c1ccccc1NC(=O)COC(=O)Cc1c[nH]c2ccccc12 | 14.6 µM [falling, partial curve, poor fit] | 
22 | COC1=C/C(=C/c2c(N)n3cc(C)sc3nc2=O)C=CC1=O | 32.6 µM [falling, single point] | 

Grouped by structure: the entries above with four or more nitrogen atoms.
Row | Structure (SMILES) | AC50 [1] | AC50 [2]
3 | Cc1ccc2nc(NNC(=O)c3ccc(S(=O)(=O)N4CCc5ccccc5C4)cc3)sc2c1 | 29.1 µM [rising, single point] | 
10 | CCCCN(C(=O)CSc1nc2ccccc2s1)c1c(N)n(CCCC)c(=O)[nH]c1=O | 13 µM [rising, partial curve, poor fit] | 
11 | CCn1c(SCC(=O)Nc2nccs2)nnc1-c1ccccc1 | 2.06 µM [falling, single point] | 
12 | O=C(N1CCOCC1)N1CCN(S(=O)(=O)N2CCCCC2)CC1 | 29.1 µM [falling, single point] | 
15 | COc1ccc(/C=N/Nc2ncnc3sc4c(c23)CCCC4)cc1O | 13 µM [falling, partial curve, poor fit] | 
17 | O=C(CSc1nc2ccccc2c(=O)n1-c1ccc(Cl)cc1)N/N=C/C=C/c1ccccc1[N+](=O)[O-] | 2.59 µM [falling, full curve] | 
19 | O=C(Cn1cnc2ccccc2c1=O)Nc1cccc(-c2nnc3n2CCCCC3)c1 | 32.6 µM [falling, single point] | 

Following part

Row | Structure (SMILES) | AC50 [1] | AC50 [2]
23 | Cc1c(C(=O)O)cnc2cc(-c3ccc(Cl)cc3)nn12 | 18.4 µM [falling, partial curve] | 
24 | NC(=O)c1cc(Br)cc(C2CCCCC2)c1O | 12.6 µM [rising, partial curve] | 
25 | NCC(c1ccccc1)(c1ccccc1)c1ccccc1 | 32.6 µM [falling, single point] | 
26 | O=C(N/N=C/c1ccc2c(c1)OCO2)c1ccc(Br)o1 | 7.31 µM [falling, partial curve] | 
27 | CCC(=O)N1CCN(c2ccc(NC(=O)c3cc4ccccc4o3)cc2)CC1 | 29.1 µM [falling, single point] | 
28 | CCNC(=S)NNc1nncc2ccccc12 |  | 25.1 µM [falling, single point]
29 | COc1ccnc(Oc2ccc3ccccc3c2)c1C#N | 3.55 µM [rising, partial curve, poor fit] | 
30 | C/C(=N\O)c1cccc(Br)c1 | 7.94 µM [rising, partial curve, poor fit] | 
31 | Cc1noc(C)c1CN1C(=O)NC2(CCCCCCC2)C1=O | 10.3 µM [falling, partial curve, poor fit] | 
32 | O=C(CSc1nnc(CNc2ccc(F)cc2)o1)c1ccccc1 | 1.41 µM [falling, full curve] | 1.41 µM [rising, full curve, poor fit]
33 | COc1cc(CCc2ccccc2)c(C(=O)O)c(O)c1C/C=C(/C)CCC=C(C)C | 8.2 µM [rising, partial curve, poor fit] | 
34 | CCN(CC)CCNc1ccnc2cc(Cl)ccc12 | 14.6 µM [falling, single point] | 
35 | COc1ccc(OC)c(-c2nnc(-c3ccc(C)o3)o2)c1 | 0.259 µM [falling, full curve, poor fit] | 
36 | CCN(CC)Cc1cc(C(C)=O)ccc1OCC(C)C | 3.16 µM [falling, partial curve, poor fit] | 
37 | O=C(NCc1cccnc1)c1ccc(COc2cccc3ccccc23)o1 | 22.4 µM [falling, single point] | 
38 | CCn1c(=O)c(-c2nc3ccccc3[nH]2)c(O)c2ccccc21 | 1 µM [falling, full curve, poor fit] | 
39 | O=C(O)c1ccc(CSc2nnc(-c3cccnc3)n2-c2ccc(Br)cc2)cc1 | 0.0891 µM [rising, full curve, poor fit] | 
40 | Cc1oc(C(=O)O)cc1COc1ccc2c(C)cc(=O)oc2c1 | 23.1 µM [falling, single point] | 
41 | O=C(Nc1cccc(F)c1)N1CC=C(c2ccc(Cl)cc2)CC1 | 29.1 µM [falling, single point] | 
42 | COc1cc2c(cc1OC)C(c1ccc(-c3cc(Cl)ccc3Cl)o1)=NCC2 | 0.13 µM [rising, full curve, poor fit] | 
43 | Cc1onc(-c2ccccc2)c1C(=O)NC(=S)Nc1sc2c(c1C#N)CCCC2 | 2.31 µM [rising, full curve] | 
44 | CCCc1ccc(OCCNC(=O)CC)cc1 | 4.61 µM [rising, full curve, poor fit] | 

Row | Structure (SMILES) | AC50 [1] | AC50 [2]
45 | CS(=O)(=O)c1ccc(Sc2nc3ccccc3s2)c([N+](=O)[O-])c1 | 2.59 µM [falling, full curve] | 
46 | COc1ccccc1N=NC1C(=O)N(C(N)=S)N=C1C (configuration not stated) |  | 20 µM [falling, single point]
47 | CCN(CC)CCCNC(=O)CSc1nc2c(c(C(F)(F)F)n1)CCc1ccccc1-2 | 35.5 µM [falling, single point] | 
48 | C#CCOc1ccccc1CNc1ccccc1 | 16.4 µM [rising, single point] | 
49 | COc1ccc(N2CCN(C(c3nnnn3CCc3ccccc3)C(C)C)CC2)cc1 (configuration not stated) | 5.62 µM [falling, single point] | 
50 | S=C(Nc1ccccc1)N1N=C(c2cccs2)CC1c1cccs1 (configuration not stated) | 15.8 µM [falling, single point] | 
51 | C/C(=N\N=C1\NC(=O)C(Cc2ccccc2)S1)c1ccccc1 (configuration not stated) | 3.16 µM [rising, partial curve] | 
52 | COC(=O)/C=C\C(=O)Nc1cccc([N+](=O)[O-])c1 | 29.1 µM [falling, single point] | 23.1 µM [rising, partial curve, poor fit]
53 | CCc1nc2ccccc2c(C(=O)OCCN2C(=O)c3ccccc3C2=O)c1C | 7.08 µM [falling, full curve] | 
54 | Cc1cccc([C@@H]2[C@@H]3C(=O)N(Cc4ccccc4)C(=O)[C@@H]3[C@]3(Cc4ccc(Cl)cc4)C(=O)N(c4cccc(Br)c4)C(=O)N23)c1 | 0.562 µM [falling, partial curve, poor fit] | 
55 | CN(C)CCCn1c(SCC(=O)Nc2nccs2)nnc1-c1ccncc1 | 8.91 µM [falling, partial curve] | 
56 | Oc1cccc(/C=N/N=C/c2cccc(O)c2O)c1O | 5.62 µM [rising, full curve, poor fit] | 
57 | Cc1ccc(-c2nnc(NCc3nc4ccccc4[nH]3)c3ccccc23)cc1S(=O)(=O)N(C)C | 20.6 µM [falling, partial curve, poor fit] | 
58 | NC(=O)c1ncn([C@@H]2O[C@H](CO)[C@@H](O)[C@H]2O)n1 | 32.6 µM [rising, single point] | 
59 | Cc1ccccc1NC(=O)c1cc([N+](=O)[O-])ccc1NCCN1C(=O)CCC1=O | 12.6 µM [rising, single point] | 
60 | COc1ccc(-c2nc(C)c(C(C)=O)n2O)cc1 | 11.2 µM [falling, partial curve] | 
61 | Cc1nnc(NC(=O)CSc2nnc(-c3ccco3)o2)s1 | 10 µM [falling, partial curve] | 
62 | CCN(C(=O)COc1ccc(N(C)S(=O)(=O)c2ccc(NC(C)=O)cc2)cc1)C1CCCCC1 | 14.6 µM [falling, single point] | 
63 | COc1ccc2ccccc2c1/C=N/Nc1cccc(C(=O)O)c1 | 0.447 µM [falling, full curve, poor fit] | 
64 | CC(C)(CO)NCc1cccs1 | 5.62 µM [falling, full curve] | 
65 | O=C(NCCCN1CCc2ccccc2C1)Nc1ccc(Br)cc1 | 1.84 µM [rising, partial curve, poor fit] | 

Single records (already shown).
CC(C)(CO)NCc1cccs1 is listed with AC50 [1]: 5.62 µM [falling, full curve]
Cc1cccc([C@@H]2[C@@H]3C(=O)N(Cc4ccccc4)C(=O)[C@@H]3[C@]3(Cc4ccc(Cl)cc4)C(=O)N(c4cccc(Br)c4)C(=O)N23)c1 is listed with AC50 [1]: 0.562 µM [falling, partial curve, poor fit]
